Data taken from the supplement of paper PMC11006884.
This list holds what a sample rich in targets with a hit left over. Single values of this set are uncertain. The entries are a selection whose mix differs from that of the whole data set.

By UniProt entry, the sequences of proteins in these tests, tags left out. Where a name states a change or a piece, a line headed by the entry shows the natural chain unless it says otherwise.
UniProt Q13438: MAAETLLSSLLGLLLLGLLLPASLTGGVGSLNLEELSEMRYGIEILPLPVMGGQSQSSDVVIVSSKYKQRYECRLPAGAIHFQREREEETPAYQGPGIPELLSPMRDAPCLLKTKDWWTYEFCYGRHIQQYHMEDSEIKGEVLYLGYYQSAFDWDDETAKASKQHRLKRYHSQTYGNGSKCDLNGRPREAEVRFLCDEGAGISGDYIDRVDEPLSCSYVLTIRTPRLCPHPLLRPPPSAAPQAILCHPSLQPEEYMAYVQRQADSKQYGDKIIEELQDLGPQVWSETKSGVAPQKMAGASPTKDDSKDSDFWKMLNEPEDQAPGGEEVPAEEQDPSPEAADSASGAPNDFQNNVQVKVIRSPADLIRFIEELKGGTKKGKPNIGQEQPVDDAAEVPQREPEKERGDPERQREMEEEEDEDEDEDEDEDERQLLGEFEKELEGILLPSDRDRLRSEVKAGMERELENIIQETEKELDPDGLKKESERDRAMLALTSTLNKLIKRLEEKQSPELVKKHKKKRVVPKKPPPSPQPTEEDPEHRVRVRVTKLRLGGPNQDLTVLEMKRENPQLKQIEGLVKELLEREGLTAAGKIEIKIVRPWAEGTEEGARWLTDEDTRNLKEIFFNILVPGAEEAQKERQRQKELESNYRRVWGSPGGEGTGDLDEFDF
UniProt Q12996: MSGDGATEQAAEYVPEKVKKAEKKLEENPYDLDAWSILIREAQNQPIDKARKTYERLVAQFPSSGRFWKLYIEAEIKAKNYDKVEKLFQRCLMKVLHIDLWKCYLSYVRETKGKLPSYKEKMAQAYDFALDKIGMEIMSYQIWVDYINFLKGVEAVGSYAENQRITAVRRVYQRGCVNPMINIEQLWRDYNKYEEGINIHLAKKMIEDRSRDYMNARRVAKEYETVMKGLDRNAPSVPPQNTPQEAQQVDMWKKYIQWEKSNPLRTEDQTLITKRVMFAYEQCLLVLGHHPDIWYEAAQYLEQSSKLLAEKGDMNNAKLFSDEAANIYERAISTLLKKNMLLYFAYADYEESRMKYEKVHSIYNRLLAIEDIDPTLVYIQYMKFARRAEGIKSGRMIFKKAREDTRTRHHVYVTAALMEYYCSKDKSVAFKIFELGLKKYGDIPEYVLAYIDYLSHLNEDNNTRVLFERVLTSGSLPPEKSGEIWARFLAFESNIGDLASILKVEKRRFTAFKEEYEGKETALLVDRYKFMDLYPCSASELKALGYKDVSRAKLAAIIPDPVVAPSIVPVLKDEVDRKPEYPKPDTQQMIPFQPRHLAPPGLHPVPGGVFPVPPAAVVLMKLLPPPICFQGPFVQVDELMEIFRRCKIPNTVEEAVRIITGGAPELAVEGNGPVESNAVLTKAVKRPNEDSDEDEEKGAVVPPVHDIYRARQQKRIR
UniProt Q13098: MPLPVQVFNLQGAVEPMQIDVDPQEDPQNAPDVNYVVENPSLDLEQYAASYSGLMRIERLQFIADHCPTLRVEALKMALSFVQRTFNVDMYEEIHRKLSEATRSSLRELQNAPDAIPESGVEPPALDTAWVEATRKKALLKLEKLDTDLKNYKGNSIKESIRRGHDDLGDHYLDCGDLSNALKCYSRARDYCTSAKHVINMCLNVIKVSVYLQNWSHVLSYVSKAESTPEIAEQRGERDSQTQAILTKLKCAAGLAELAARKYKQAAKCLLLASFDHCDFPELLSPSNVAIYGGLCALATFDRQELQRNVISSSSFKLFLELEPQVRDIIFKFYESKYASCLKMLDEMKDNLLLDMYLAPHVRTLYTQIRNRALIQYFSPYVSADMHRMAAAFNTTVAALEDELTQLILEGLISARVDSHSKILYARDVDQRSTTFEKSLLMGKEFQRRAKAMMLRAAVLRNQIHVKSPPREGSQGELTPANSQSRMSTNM
UniProt Q05655: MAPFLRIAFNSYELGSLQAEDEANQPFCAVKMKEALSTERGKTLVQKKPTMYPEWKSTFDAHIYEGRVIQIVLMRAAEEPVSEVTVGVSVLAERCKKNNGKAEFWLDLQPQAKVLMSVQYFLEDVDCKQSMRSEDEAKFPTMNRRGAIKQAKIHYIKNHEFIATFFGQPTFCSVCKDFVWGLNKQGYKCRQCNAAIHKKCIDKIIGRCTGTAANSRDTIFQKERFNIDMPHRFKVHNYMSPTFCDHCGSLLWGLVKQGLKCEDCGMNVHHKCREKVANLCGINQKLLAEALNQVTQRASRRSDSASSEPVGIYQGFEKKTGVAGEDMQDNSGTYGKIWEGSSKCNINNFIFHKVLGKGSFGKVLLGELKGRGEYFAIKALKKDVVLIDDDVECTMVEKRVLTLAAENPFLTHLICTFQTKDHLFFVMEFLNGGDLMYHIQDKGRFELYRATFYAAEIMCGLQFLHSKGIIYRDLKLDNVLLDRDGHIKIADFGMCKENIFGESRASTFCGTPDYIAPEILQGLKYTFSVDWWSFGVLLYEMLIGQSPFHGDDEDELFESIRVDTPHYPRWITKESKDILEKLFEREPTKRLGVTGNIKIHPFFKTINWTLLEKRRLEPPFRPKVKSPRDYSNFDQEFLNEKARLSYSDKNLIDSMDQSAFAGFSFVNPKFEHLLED
UniProt Q12906, whole entry, looked up: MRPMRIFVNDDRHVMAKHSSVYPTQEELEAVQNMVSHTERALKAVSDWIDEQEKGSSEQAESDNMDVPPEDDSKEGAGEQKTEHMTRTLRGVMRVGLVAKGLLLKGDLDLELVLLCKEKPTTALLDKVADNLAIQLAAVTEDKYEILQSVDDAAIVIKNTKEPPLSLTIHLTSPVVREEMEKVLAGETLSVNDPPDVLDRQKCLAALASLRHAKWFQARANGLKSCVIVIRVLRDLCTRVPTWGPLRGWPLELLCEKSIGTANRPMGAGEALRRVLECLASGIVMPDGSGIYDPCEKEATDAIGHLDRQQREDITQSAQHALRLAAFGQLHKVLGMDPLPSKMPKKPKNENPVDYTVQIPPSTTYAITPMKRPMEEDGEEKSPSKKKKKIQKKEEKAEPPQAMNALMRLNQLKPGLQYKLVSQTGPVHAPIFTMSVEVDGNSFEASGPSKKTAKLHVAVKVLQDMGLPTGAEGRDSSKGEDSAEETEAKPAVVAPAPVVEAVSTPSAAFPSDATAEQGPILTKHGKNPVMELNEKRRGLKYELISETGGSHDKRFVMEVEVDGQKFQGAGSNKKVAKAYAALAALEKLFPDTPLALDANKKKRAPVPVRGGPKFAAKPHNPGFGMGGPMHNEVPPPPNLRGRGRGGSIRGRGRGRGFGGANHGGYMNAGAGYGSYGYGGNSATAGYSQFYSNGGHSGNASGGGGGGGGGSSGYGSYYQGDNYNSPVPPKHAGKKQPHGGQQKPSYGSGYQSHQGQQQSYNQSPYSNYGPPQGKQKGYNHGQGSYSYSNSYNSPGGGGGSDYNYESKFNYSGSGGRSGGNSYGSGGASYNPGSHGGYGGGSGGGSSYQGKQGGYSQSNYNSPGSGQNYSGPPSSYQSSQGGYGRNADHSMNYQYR
UniProt Q12824, whole entry, looked up: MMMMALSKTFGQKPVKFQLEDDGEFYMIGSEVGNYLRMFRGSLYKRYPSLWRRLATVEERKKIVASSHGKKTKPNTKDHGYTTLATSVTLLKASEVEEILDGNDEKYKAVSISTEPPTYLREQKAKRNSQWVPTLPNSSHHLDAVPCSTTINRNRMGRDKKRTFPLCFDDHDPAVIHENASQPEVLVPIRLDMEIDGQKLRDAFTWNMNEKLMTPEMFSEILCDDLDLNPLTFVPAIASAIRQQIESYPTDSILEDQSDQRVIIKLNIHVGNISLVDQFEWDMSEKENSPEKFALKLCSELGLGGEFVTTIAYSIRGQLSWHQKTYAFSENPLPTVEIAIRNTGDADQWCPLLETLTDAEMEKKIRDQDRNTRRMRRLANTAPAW
UniProt Q08380: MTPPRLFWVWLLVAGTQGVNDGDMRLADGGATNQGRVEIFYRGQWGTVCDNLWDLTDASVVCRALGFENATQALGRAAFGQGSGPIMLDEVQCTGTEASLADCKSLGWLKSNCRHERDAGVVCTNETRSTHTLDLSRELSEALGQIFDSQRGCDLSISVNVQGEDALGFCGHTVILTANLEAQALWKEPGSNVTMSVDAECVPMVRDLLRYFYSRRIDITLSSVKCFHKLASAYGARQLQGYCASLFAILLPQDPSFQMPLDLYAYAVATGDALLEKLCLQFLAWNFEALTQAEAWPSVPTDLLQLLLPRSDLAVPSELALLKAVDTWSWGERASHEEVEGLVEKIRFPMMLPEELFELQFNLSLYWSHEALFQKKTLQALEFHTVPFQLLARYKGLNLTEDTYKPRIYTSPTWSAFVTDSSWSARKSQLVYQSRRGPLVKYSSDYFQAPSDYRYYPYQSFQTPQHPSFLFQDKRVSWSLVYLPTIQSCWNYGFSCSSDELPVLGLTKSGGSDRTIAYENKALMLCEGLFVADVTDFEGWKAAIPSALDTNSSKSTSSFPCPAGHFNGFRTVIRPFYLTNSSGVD
UniProt Q08J23, whole entry, looked up: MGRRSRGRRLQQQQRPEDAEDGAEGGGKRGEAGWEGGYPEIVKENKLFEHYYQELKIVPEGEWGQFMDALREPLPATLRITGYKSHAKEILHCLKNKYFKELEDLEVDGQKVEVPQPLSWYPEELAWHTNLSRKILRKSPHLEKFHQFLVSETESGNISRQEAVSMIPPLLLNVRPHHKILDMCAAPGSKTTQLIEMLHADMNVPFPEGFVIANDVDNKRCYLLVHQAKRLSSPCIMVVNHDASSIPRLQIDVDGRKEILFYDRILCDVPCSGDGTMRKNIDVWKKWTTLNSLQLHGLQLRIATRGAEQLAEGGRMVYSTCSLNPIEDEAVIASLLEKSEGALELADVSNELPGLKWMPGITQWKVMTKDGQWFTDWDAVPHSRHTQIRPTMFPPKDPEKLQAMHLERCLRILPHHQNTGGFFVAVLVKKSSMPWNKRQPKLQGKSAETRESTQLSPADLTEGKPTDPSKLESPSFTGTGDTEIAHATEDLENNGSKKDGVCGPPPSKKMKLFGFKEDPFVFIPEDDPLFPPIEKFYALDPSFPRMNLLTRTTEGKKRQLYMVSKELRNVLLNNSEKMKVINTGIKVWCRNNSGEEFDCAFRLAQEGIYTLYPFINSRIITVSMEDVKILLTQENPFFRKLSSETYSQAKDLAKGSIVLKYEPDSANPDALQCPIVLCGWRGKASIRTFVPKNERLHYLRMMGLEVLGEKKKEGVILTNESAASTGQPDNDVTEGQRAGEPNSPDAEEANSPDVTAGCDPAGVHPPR
UniProt Q13424: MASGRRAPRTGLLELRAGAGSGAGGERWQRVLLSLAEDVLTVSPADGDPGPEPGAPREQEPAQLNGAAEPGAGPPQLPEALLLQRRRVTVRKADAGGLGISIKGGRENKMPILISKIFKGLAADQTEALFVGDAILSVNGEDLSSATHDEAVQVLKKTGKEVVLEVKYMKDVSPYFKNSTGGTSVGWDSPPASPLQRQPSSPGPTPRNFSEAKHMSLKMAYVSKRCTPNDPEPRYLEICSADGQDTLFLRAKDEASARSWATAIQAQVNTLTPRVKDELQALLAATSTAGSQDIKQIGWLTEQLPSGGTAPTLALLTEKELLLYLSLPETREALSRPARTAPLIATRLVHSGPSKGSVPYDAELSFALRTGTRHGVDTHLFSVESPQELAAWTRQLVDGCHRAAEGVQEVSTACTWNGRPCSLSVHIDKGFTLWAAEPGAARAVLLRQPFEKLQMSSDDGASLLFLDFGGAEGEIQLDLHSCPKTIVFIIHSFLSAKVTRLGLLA
UniProt Q13144, whole entry, looked up: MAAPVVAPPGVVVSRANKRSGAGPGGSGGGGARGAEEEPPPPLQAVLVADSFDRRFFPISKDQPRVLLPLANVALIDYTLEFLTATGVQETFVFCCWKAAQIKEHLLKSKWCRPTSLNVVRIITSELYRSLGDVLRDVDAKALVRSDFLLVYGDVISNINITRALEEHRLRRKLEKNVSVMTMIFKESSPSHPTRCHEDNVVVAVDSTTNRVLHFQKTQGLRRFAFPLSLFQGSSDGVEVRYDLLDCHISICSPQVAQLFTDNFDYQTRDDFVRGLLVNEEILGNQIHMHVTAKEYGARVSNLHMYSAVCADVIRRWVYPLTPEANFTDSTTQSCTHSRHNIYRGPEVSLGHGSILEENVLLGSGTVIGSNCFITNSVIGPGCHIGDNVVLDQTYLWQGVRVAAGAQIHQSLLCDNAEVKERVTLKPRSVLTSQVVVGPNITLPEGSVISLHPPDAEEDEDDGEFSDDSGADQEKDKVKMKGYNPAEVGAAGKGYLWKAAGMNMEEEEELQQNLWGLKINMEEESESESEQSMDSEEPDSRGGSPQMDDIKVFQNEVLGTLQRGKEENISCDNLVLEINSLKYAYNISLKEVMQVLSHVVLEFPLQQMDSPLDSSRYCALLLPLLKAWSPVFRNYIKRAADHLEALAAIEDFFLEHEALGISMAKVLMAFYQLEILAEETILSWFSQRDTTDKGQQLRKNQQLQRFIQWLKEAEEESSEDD

Compound: COC(=O)/C=C/c1ccccc1 [methyl cinnamate]
Experiment: log2 ratio of iodoacetamide-alkyne labeling of the cysteine site, DMSO over compound (competition); higher = stronger covalent engagement of the cysteine by the compound, active = 1 or more
Settings: 500 µM; treatment time 1 h; system: HEK293T cell lysate
Outline: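 Reporter intensities give each cysteine's log2 competition ratio as the mean of control channels over the mean of compound channels. The samples were HEK293T lysate (2 mg/mL) given vehicle or electrophile (500 µM, 1 h, ambient temperature), then iodoacetamide alkyne (1 h), followed by click coupling to sCIP-TMT reagents, pooling, trypsin digestion overnight at 37 °C, streptavidin enrichment, acid elution, Orbitrap Eclipse LC-MS/MS with FAIMS and FragPipe quantification. Duplicate channels and three replicates were run, and cysteines quantified in only one replicate were discarded.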

Row | Target | log2 ratio of iodoacetamide-alkyne labeling
1 | CTBP1 C134 (UniProt Q13363) | inactive: -0.183
2 | OS9 C246 (UniProt Q13438) | inactive: 0.106
3 | CSTF3 C176 (UniProt Q12996) | inactive: 0.223
4 | GPS1 C251 (UniProt Q13098) | inactive: 0.44
5 | UniProt Q05655_C127 | inactive: 0.0459
6 | UniProt Q13242_C80 | inactive: -0.00719
7 | ILF3 C255 (UniProt Q12906) | inactive: -0.0371
8 | UniProt Q12824_C350 | inactive: 0.255
9 | LGALS3BP C496 (UniProt Q08380) | inactive: 0.29
10 | UniProt Q03164_C2159 | inactive: 0.513
11 | NSUN2 C221 (UniProt Q08J23) | inactive: 0.0348
12 | SNTA1 C239 (UniProt Q13424) | inactive: 0.133
13 | CTBP1 C312 (UniProt Q13363) | inactive: -0.0767
14 | EIF2B5 C335 (UniProt Q13144) | inactive: 0.0311
15 | EIF2B5 C196 (UniProt Q13144) | inactive: 0.047

As a working copy, some entries already given.
Row | Target | log2 ratio of iodoacetamide-alkyne labeling
1 | CTBP1 C134 (UniProt Q13363) | inactive: -0.183
2 | OS9 C246 (UniProt Q13438) | inactive: 0.106
